What all share (test): PRISMA enrichment of interactor (LFQ) in peptide spot vs all other peptide spots (log2 fold change); higher = stronger / more specific binding of the interactor to the peptide
The target of experiment [1] is DECR2, Q9NUI1. How it is done:
(§1)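 PRISMA: 15-aa overlapping tiles (offset 8 aa) of 60 microproteins, plus SOS1/GLUT1 control peptides, were spot-synthesized on cellulose membranes in triplicate. Membranes were incubated with benzonase-treated HEK293T lysate, and bound proteins were identified by LC-MS/MS with LFQ. Enrichment is the log2 fold change of each protein in one spot versus all other spots. Only interactors passing the significance cutoff are listed.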

Chains of the proteins cited; added tags and fusions are not shown.
GNL1, P36915, UniProt P36915, whole entry: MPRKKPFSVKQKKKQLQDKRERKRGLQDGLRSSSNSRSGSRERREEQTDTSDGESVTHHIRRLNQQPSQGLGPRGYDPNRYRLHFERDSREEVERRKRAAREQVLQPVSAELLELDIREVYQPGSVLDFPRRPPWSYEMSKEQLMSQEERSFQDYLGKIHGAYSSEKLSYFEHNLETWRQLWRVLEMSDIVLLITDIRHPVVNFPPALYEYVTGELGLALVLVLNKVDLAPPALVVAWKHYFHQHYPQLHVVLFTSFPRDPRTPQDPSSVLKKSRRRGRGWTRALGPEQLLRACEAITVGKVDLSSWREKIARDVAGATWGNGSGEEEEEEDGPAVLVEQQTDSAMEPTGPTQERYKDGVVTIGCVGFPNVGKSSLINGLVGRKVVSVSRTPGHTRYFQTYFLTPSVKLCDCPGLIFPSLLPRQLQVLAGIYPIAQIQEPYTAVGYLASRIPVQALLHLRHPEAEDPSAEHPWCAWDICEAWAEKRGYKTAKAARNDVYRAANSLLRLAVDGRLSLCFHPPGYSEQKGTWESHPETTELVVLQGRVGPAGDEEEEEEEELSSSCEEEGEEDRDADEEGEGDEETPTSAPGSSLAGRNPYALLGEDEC
PRMT5, O14744, UniProt O14744, whole entry: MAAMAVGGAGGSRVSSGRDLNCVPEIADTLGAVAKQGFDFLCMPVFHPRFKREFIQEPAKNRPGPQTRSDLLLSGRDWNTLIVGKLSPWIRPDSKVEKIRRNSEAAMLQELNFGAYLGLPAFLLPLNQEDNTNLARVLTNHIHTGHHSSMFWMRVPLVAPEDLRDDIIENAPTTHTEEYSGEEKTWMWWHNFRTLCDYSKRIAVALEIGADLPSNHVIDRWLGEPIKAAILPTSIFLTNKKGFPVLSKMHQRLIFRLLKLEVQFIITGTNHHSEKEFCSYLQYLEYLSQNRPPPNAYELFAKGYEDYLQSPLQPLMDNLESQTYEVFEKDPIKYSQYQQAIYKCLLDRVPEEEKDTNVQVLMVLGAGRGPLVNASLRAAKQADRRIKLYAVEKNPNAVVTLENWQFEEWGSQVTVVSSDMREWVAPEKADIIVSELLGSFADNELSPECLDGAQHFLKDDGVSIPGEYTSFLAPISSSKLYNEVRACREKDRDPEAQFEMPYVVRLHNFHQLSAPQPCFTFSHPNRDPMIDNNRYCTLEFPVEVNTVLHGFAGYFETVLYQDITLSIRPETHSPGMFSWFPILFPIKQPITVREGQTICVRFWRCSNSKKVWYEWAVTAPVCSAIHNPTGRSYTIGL
EIF1, P41567, UniProt P41567, whole entry: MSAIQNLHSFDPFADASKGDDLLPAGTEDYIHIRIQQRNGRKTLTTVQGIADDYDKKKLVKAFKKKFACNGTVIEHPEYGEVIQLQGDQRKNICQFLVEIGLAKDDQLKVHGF
NDUFA8, P51970, UniProt P51970, whole entry: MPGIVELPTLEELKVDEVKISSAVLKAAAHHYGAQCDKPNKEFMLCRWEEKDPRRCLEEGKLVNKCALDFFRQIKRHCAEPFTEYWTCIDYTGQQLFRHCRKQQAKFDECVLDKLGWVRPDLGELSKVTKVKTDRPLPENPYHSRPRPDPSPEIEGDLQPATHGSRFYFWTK
TUBB6, Q9BUF5, UniProt Q9BUF5, whole entry: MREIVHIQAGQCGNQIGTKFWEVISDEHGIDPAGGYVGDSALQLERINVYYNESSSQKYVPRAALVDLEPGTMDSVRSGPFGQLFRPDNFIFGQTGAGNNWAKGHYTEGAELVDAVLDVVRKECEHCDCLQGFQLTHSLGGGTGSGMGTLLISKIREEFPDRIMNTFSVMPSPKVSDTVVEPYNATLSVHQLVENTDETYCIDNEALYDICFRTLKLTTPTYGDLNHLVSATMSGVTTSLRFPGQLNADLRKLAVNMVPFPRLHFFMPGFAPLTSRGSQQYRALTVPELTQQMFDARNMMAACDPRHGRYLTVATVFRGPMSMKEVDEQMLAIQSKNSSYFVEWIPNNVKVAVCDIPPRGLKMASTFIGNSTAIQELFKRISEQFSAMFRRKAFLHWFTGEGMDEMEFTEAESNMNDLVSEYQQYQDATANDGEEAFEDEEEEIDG
DDB1, Q16531, UniProt Q16531, whole entry: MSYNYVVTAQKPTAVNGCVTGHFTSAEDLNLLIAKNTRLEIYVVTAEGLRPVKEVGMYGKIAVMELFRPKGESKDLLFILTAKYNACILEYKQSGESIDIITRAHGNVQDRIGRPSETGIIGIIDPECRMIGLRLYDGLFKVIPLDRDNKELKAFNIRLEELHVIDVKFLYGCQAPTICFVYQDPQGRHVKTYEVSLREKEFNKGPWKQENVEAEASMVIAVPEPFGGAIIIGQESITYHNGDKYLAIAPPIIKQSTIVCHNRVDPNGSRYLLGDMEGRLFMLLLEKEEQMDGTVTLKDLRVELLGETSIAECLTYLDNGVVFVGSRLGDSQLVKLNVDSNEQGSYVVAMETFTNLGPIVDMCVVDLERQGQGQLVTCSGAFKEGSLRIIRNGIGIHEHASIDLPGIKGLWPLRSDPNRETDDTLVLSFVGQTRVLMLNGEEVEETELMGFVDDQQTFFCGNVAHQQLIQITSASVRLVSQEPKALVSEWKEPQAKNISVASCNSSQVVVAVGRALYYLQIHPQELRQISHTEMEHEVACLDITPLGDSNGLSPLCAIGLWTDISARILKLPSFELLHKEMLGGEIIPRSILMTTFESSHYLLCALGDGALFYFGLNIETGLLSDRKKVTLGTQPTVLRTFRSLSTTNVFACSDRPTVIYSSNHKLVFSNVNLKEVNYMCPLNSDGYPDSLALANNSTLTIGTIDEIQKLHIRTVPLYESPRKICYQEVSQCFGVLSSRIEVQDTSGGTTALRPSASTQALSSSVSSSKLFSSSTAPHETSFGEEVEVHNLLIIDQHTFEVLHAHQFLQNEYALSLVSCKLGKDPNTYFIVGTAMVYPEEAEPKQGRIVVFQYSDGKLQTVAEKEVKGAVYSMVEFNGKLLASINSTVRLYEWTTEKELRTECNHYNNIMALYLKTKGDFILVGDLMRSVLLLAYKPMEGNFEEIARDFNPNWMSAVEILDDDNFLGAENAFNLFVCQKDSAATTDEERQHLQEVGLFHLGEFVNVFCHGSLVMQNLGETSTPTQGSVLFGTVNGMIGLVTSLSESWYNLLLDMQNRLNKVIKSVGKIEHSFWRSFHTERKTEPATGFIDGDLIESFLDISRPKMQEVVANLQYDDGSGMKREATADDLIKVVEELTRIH
PLK1, P53350, UniProt P53350, whole entry: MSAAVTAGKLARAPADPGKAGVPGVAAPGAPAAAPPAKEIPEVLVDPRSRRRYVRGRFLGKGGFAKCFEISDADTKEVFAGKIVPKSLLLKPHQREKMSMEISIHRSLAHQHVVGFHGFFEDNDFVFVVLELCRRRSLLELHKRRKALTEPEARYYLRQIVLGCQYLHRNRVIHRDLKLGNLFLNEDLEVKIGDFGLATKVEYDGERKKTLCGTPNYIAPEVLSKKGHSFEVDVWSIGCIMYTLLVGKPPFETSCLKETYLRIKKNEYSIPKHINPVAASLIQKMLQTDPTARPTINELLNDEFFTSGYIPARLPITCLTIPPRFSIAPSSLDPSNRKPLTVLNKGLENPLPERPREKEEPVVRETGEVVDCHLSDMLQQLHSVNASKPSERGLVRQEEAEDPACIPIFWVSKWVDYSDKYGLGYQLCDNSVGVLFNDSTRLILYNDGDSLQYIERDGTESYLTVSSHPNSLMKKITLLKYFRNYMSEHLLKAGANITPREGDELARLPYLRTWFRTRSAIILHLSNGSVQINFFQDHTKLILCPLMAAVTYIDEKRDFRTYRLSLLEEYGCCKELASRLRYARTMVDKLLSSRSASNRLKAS
SNRPA, P09012, UniProt P09012, whole entry: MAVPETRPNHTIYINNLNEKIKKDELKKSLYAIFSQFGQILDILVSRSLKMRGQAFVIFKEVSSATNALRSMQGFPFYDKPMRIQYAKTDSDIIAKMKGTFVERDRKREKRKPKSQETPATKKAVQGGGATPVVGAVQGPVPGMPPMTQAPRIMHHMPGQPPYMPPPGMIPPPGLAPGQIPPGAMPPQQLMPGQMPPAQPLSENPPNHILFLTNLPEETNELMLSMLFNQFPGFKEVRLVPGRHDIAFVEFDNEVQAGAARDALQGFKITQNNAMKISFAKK
USP9X, Q93008, UniProt Q93008, whole entry: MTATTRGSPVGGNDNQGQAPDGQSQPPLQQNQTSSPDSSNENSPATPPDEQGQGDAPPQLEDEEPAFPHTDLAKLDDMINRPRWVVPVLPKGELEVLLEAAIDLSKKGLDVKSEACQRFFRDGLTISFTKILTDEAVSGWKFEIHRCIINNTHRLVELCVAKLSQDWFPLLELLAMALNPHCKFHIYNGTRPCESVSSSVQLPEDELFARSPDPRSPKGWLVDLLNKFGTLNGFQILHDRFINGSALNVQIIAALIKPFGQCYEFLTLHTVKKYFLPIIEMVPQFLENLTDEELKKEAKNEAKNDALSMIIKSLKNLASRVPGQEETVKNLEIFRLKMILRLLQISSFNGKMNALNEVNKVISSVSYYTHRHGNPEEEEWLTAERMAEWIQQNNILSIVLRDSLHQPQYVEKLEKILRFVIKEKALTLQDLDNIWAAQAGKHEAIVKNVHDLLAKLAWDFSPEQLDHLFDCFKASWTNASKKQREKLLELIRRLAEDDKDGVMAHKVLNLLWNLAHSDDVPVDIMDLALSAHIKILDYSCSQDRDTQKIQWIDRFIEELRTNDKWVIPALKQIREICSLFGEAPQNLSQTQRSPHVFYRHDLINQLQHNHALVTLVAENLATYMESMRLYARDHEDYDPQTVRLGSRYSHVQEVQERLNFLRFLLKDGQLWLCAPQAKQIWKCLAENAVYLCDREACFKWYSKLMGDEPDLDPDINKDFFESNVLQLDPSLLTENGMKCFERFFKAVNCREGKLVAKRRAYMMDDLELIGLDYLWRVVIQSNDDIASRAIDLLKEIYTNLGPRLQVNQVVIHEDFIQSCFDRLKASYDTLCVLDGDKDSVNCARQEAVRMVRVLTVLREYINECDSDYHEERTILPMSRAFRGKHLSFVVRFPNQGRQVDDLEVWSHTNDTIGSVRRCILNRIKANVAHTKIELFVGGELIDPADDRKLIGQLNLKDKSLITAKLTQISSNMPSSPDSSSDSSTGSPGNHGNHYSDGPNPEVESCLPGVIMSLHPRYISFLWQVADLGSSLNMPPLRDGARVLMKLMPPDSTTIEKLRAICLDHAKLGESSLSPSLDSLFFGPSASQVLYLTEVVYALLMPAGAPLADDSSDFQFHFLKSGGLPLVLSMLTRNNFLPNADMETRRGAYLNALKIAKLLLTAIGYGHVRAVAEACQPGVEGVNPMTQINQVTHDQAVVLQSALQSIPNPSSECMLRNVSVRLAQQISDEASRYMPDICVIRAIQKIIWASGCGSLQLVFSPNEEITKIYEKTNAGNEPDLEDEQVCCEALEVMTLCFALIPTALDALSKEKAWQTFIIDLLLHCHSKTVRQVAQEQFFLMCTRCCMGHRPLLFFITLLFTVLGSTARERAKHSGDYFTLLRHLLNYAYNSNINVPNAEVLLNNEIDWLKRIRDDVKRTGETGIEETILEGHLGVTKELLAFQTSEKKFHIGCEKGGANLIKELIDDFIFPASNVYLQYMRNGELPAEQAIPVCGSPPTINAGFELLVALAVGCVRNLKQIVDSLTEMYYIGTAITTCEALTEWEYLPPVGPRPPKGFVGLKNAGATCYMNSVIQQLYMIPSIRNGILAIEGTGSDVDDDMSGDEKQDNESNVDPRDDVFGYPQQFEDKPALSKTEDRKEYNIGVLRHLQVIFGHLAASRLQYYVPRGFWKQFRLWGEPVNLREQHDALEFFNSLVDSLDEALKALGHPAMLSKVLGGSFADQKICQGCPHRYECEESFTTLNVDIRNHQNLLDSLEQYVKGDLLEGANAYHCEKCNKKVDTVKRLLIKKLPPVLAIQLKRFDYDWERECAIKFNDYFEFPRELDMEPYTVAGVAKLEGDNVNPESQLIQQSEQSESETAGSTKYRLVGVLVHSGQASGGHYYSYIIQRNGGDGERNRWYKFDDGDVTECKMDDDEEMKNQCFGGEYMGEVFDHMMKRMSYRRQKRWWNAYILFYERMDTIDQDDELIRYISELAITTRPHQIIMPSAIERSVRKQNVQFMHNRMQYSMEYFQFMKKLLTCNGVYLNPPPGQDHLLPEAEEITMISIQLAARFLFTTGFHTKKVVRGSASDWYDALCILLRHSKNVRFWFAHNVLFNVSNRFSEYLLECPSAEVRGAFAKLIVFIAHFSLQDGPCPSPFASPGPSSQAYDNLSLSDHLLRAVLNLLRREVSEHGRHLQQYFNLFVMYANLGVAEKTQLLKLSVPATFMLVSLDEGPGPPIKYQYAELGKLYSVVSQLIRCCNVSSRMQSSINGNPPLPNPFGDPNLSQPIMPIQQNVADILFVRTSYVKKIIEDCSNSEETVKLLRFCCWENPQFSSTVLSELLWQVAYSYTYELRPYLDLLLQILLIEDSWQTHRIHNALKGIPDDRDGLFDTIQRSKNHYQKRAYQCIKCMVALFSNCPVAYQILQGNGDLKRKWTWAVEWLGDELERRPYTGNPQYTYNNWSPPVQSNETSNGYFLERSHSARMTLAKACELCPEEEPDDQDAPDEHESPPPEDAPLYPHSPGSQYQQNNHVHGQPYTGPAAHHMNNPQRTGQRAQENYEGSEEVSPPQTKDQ

Experiment [2] deals with ELOVL5, Q9NYP7. Here is the method:
as §1

In experiment [3] the target is GNL1, P36915. Here is the method: as §1
In experiment [4] the target is GPR180, Q86V85. Here is the method:
as §1

Experiment [5] addresses MFN2, O95140. Here is the method: as §1
Experiment [6] addresses MRPL18, Q9H0U6. Here is the method: as §1
For experiment [7], the target named is NOP53, Q9NZM5. Here is the method:
as §1

Experiment [8] concerns the target PIGK, Q92643. Here is the method: as §1
Experiment [9] addresses POP7, O75817. How it is done:
as §1

The target in experiment [10] is PRMT5, O14744. Here is the method: as §1
In experiment [11] the target is PTCD3, Q96EY7. Here is the method: as §1
In experiment [12] the target is RRP36, Q96EU6. How it is done:
as §1

Experiment [13] deals with SMARCAD1, Q9H4L7. How it is done:
as §1

In experiment [14] the target is SUPT5H, O00267. How it is done:
as §1

Experiment [15] addresses DDX5, P17844. Here is the method:
as §1

For experiment [16], the target named is EIF1, P41567. How it is done:
as §1

Experiment [17] addresses EIF4H, Q15056. Here is the method: as §1
Experiment [18] has as its target FAM207A, Q9NSI2. Here is the method:
as §1

Experiment [19] has as its target NDUFA8, P51970. How it is done: as §1
The target of experiment [20] is QKI, Q96PU8. Here is the method: as §1
The target in experiment [21] is RAVER1, Q8IY67. How it is done:
as §1

Experiment [22] has as its target UFD1, Q92890. How it is done:
as §1

The target in experiment [23] is DDX55, Q8NHQ9. How it is done:
as §1

Experiment [24] has as its target FLOT2, Q14254. How it is done: as §1
In experiment [25] the target is GART, P22102. Here is the method:
as §1

Experiment [26] has as its target GNG12, Q9UBI6. Here is the method: as §1
For experiment [27], the target named is HNRNPH2, P55795. Here is the method: as §1
In experiment [28] the target is NAT10, Q9H0A0. Here is the method: as §1
For experiment [29], the target named is RBM10. How it is done:
as §1

Experiment [30] deals with RBM14, Q96PK6. Here is the method: as §1
In experiment [31] the target is RNF213, Q63HN8. Here is the method: as §1
Experiment [32] concerns the target SLC25A10, Q9UBX3. Here is the method: as §1
Experiment [33] addresses TPM3, P06753. How it is done: as §1
Experiment [34] addresses TUBB6, Q9BUF5. Here is the method:
as §1

Experiment [35] concerns the target UMPS, P11172. Here is the method: as §1
For experiment [36], the target named is DDB1, Q16531. How it is done: as §1
Experiment [37] has as its target EEF1B2, P24534. How it is done:
as §1

The target of experiment [38] is GPAT4, Q86UL3. How it is done:
as §1

The target in experiment [39] is PLK1, P53350. Here is the method:
as §1

Experiment [40] deals with PYGL, P06737. Here is the method: as §1
Experiment [41] addresses RBM12B, Q8IXT5. How it is done:
as §1

Experiment [42] concerns the target SMNDC1, O75940. How it is done: as §1
Experiment [43] concerns the target SNRPA, P09012. How it is done: as §1
Experiment [44] addresses SSR1, P43307. How it is done:
as §1

Experiment [45] has as its target TOP2B, Q02880. How it is done: as §1
For experiment [46], the target named is UBE2N, P61088. Here is the method:
as §1

Experiment [47] concerns the target USP9X, Q93008. How it is done: as §1
For experiment [48], the target named is ZNF483, Q8TF39. Here is the method:
as §1

This is one part of the list. The list holds hits alone, and they repeat only in part.

The values that follow come from the supplement of paper PMC10032668.

With RILQVQLHRLAFPDA [TBX5-AS1], the “PRISMA enrichment of interactor (log2)” value in experiment [1] is 4.38; in [2], 7.14; in experiment [3], 6.34; in experiment [4], 4.85; in experiment [5], 3.89; in experiment [6], 6.38. Besides, the “PRISMA enrichment of interactor (log2)” value in experiment [7] was 6.48; in experiment [8] it was 3.81; in experiment [9], 5.38; in experiment [10], 4.94; in [11], 5.42; in experiment [12], 4.43. Besides, the entries for the “PRISMA enrichment of interactor (log2)” value in experiment [13] and in experiment [14] were 5.06 and 5.78, respectively.
As to LVVGFLLCLFLLMPP [TUG1], the “PRISMA enrichment of interactor (log2)” value in experiment [15] amounted to 4.57; in experiment [16] it was 5.57; in [17] it was 4.64; in [18] it was 4.54; in experiment [19] it was 4.57; in experiment [20], 4.71. Besides, the figures for the “PRISMA enrichment of interactor (log2)” value in experiment [21] and in experiment [22] were 4.49 and 4.73, respectively.
With GLQGVRSMSPLTKVQ [JPX], the “PRISMA enrichment of interactor (log2)” value in [23] stood at 4.08; in experiment [24] it was 4.76; in experiment [25], 5.35; in experiment [26], 3.82; in [27], 6.16; in [28] it was 5. The “PRISMA enrichment of interactor (log2)” value was found to be 5.24 in experiment [29]; 4.86 in [30]; 8.69 in [31]; 4.91 in [32]; 7.77 in experiment [33]; 4.83 in [34]. Further, in experiment [35], the “PRISMA enrichment of interactor (log2)” value is 6.54.
Regarding NLEMGLVERGIEKSR [JHDM1D-AS1], the “PRISMA enrichment of interactor (log2)” value was determined as 5.67 in experiment [36]; 5.15 in experiment [37]; 5.76 in experiment [38]; 6.12 in [39]; 4.68 in experiment [40]; 5.51 in [21]. Also, the “PRISMA enrichment of interactor (log2)” value in experiment [41] amounted to 4.24; in [42] it was 5.09; in experiment [43] it was 6.19; in experiment [44] it was 4.05; in experiment [45] it was 6; in experiment [46] it was 7.09. For the same molecule, the “PRISMA enrichment of interactor (log2)” value in experiment [47] was 7.36; in experiment [48] it was 4.59.
